Measurements reported in the supplement of paper PMC11732987, “Enantioselective OTUD7B fragment discovery through chemoproteomics screening and high-throughput optimisation” (Communications Chemistry, 2025).
This is one part of the list. The data scatter; read single values as rough.

Sequences of proteins named here, by UniProt entry; tags and fusion partners are left off. A change or cut given only in a name is not applied to a line headed by its entry. Residues count along the entry.
UniProt Q02790: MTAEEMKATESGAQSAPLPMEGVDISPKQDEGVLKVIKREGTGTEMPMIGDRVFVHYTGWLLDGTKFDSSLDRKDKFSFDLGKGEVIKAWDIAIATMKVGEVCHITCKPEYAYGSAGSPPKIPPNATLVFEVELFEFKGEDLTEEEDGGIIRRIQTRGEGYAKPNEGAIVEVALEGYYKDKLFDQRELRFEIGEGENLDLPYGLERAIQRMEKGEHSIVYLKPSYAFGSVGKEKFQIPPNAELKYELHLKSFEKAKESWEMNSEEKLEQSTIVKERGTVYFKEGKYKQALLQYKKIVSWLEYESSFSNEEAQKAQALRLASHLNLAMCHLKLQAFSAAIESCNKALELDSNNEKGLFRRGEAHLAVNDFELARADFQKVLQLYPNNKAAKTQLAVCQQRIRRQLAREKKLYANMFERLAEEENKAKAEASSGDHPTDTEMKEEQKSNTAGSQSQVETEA
UniProt Q8NB37, 175-194: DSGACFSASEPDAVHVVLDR
UniProt Q6PIJ6: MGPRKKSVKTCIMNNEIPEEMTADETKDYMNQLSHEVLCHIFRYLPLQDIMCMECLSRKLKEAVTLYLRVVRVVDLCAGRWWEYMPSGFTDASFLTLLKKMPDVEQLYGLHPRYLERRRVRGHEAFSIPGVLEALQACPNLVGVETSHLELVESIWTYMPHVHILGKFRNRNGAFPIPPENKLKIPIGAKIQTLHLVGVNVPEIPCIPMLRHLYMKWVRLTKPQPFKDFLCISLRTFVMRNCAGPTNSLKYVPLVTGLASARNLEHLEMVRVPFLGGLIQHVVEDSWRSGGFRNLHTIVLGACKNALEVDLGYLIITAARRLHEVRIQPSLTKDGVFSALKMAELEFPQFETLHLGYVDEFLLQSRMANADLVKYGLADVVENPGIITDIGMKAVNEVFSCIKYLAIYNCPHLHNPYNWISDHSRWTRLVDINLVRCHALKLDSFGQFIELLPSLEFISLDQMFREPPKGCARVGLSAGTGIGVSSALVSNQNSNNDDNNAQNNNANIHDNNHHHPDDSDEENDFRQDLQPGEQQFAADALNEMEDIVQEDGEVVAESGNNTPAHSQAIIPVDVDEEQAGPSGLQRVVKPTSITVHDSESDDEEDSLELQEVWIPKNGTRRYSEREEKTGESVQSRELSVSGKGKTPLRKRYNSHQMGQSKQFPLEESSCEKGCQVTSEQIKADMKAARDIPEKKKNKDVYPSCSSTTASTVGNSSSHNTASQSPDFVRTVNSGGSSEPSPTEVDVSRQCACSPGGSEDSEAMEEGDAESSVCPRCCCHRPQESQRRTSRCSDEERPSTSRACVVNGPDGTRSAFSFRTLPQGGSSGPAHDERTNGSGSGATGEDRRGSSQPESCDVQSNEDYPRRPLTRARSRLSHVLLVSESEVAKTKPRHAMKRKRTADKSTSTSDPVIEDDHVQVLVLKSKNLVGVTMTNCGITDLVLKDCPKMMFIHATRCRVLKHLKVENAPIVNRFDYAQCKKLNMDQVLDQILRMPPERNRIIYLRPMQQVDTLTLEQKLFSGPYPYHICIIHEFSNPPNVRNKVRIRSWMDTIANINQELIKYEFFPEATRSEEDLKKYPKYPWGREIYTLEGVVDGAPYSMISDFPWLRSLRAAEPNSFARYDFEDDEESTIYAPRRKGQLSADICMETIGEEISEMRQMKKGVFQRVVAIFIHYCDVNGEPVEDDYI
UniProt Q96AY3: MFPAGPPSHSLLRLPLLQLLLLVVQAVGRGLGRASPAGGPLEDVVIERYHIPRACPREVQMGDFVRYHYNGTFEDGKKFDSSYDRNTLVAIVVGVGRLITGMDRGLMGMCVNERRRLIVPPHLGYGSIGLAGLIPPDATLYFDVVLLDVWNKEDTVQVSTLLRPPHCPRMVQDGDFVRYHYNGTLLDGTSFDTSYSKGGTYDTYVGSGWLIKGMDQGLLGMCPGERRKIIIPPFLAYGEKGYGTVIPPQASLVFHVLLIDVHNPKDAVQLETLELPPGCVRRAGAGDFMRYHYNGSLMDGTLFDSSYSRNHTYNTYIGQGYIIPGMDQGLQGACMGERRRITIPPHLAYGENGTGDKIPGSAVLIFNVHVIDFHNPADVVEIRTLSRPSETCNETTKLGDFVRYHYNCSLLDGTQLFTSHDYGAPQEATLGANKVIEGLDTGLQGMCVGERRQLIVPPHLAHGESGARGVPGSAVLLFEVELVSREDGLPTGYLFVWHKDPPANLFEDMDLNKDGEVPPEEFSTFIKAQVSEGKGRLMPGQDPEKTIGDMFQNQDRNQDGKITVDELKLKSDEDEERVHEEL

Columns and labels:
[1] = compound: ClCC(=O)N[C@@H]1CCCc2ccccc12; experiment: log2 mean competition ratio of IA-DTB cysteine labelling (DMSO/compound) (log2 ratio); higher = stronger cysteine engagement by compound; details: treatment time: 4 h, cell line lysate: HEK293T
Protocol: (§1)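 IA-DTB competitive cysteine chemoproteomics in HEK293T RIPA lysate. Lysates were treated with compound 29 or 30 at 50 or 200 µM for 4 h, then IA-DTB (500 µM, 1 h), trypsin-digested, NeutrAvidin-enriched and analysed by diaPASEF. Competition ratio = intensity DMSO / intensity compound (n=4 treated, n=64 DMSO); binding: mean log2 CR ≥ 1 and p ≤ 0.05 plus QC filters. Target is the cysteine site.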

[2] = compound: ClCC(=O)N[C@H]1CCCc2ccccc12; experiment: as above; details: treatment time: 4 h, cell line lysate: HEK293T
Protocol: as §1

Target	log2 mean competition ratio ([1]; 50 µM)	log2 mean competition ratio ([1]; 200 µM)	log2 mean competition ratio ([2]; 50 µM)	log2 mean competition ratio ([2]; 200 µM)
FKBP4 C342 (UniProt Q02790)	0.28	0.0631	0.11	-0.0402
GATD1 C179 (UniProt Q8NB37)	-0.212	-0.199	-0.296	-0.304
FBXO38 C803 (UniProt Q6PIJ6)	0.0474	0.111	0.151	0.178
FKBP10 C392 (UniProt Q96AY3)	0.11	0.321	-0.105	-0.136
